1 compound from paper PMC5547389, “Structure-activity relationships and molecular docking studies of chromene and chromene based azo chromophores: A novel series of potent antimicrobial and anticancer agents” (EXCLI Journal, 2017) can be followed below.

≈ marks a conversion by molar mass, not a printed value.

The subject of this assay is Candida albicans (RCMB 05036). The assay is described as follows: MIC by serial dilution method. The class given is cell-based. Conditions: RCMB05036, fungi, read-out: Minimum inhibitory concentration, MIC, C.A. The protocol:
All the newly synthesized compounds described in this report were screened for both antibacterial and antifungal activity via the reported agar diffusion well method (Vanden Berghe and Vlietinck, 1991[62]). The inhibition zones and minimum inhibitory concentrations (MIC) were determined by the serial dilution method (Cappuccino and Sherman, 1999[12]). The antimicrobial activity of the synthesized compounds was tested against a broad panel of microorganisms including two Gram-positive bacteria: Streptococcus pneumoniae (RCMB 010010) and Bacillus subtilis (RCMB 010067), two Gram-negative bacteria: Pseudomonas aeruginosa (RCMB 010043) and Escherichia coli (RCMB 010052), and four fungi: Aspergillus fumigatus (RCMB 02568), Syncephalastrum racemosum (RCMB 05922), Geotricum candidum (RCMB 05097), and Candida albicans (RCMB 05036). Ampicillin, ciprofloxacin, gentamicin and amphotericin B were used as positive control drugs (Atta-ur-Rahman and Thomsen, 2001[7]; Smania et al., 1999[57]). […] While in the case of Gm-ve bacteria, they had weak activity. In addition, certain strains of fungi were sensitive to tested compounds with an IZ range from 12-25 except Candida albicans.

As to `C[C@@H]1[C@H](O)[C@@H](C)/C=C/C=C/C=C/C=C/C=C/C=C/C=C/[C@H](O[C@@H]2O[C@H](C)[C@@H](O)[C@H](N)[C@@H]2O)C[C@@H]2O[C@](O)(C[C@@H](O)C[C@@H](O)[C@H](O)CC[C@@H](O)C[C@@H](O)CC(=O)O[C@H]1C)C[C@H](O)[C@H]2C(=O)O` [Amphotericin B, reference compound], the MIC amounted to 0.12 µg/mL (≈ 0.13 µM).
